Assay results from publication PMC8185074, “Anchor extension: a structure-guided approach to design cyclic peptides targeting enzyme active sites” (Nature Communications, 2021).

Protein sequences, listed by entry. Tags and fused reporters are not part of them.
UniProt Q92769, whole entry: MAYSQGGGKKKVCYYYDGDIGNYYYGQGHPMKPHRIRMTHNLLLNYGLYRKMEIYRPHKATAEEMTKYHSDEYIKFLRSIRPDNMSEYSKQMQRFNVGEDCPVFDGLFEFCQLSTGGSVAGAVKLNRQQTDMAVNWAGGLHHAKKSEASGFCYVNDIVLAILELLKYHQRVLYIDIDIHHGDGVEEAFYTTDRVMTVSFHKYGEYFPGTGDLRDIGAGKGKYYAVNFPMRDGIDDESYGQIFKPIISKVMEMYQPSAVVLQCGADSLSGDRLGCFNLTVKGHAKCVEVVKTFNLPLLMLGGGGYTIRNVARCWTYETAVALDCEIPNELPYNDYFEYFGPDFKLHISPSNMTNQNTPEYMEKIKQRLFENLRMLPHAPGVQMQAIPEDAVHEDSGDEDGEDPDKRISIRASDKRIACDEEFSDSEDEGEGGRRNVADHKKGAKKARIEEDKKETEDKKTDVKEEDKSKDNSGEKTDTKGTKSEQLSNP

Molecular target: T1, HDAC2 (Homo sapiens, UniProt Q92769)
T1 construct: purchased Reaction Biology Corporation (assay run by the CRO)
Experiment: Initial HDAC2 IC50 estimate (BPS Biosciences HDAC fluorogenic assay kit)
Assay type: biochemical
Conditions: HDAC2 activity (initial activity), Supplementary Dataset 2
Experimental: Initial IC50 values were estimated using HDAC fluorogenic assay kits from BPS Biosciences (HDAC2, HDAC4, and HDAC6) following the protocol described in the kit. All the measures were performed in duplicates or triplicates. These measurements were done either on full range of concentrations (1:10 dilution from 1 µM to 100 pM) or on two concentrations only (20 nM and 200 nM) as an estimate of the range. […] Source Data are provided as a Source Data file.

CC(C)C[C@@H]1NC(=O)[C@H](CCCCCS)NC(=O)[C@@H](C)NC(=O)[C@H](CCCNC(=N)N)NC(=O)[C@H](CC(=O)O)NC(=O)[C@@H]2CCCN2C(=O)[C@@H]2CCCN2C(=O)[C@H](CO)NC(=O)[C@@H](CCC(=O)O)NC(=O)[C@@H](CC(=O)O)NC(=O)[C@H](CCCN)NC(=O)[C@@H](CC(N)=O)NC(=O)[C@H](C(C)C)NC1=O [des1.4.0, SHA-Leu-Val-dAsn-Orn-dAsp-dGlu-Ser-Pro-Pro-Asp-Arg-dAla]
IC50: 100 µM
